# Some of the results follow. Shown are side measurements of this screen, not its main read-out; they come without a call. Most of these compounds were active or inconclusive in the main read-out, so they are no random draw. The note in brackets gives the kind of curve behind each potency; many fits are weak.
# Test: qHTS Assay to Find Inhibitors of Chronic Active B-Cell Receptor Signaling
# Conditions: ABC-DLBCL IkBa-CBG/CBR reporter, luminescence ratio (green luciferase fused to IkBa over red control in TMD8 lymphoma cells), 4 h
# Summary of the method: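 Compounds up to 46 uM were incubated four hours with TMD8 cells whose green CBG68 luciferase is fused to IkappaBalpha; red CBR luminescence normalised the signal, and concentration-effect curves were fitted to fusion, red and ratio data.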
# [1] = measured here: CBR red luminescence, cell number
# [2] = measured here: IkBa-CBG green luminescence
structure (smiles),measurement,setting,value
Cc1onc(-c2ccc(Cl)cc2Cl)c1-c1csc(COc2ccccc2)n1,AC50,[1],"0.708 µM [falling, partial curve, poor fit]"
COc1ccccc1Nc1nnc(SCC(=O)c2c(N)n(C3CC3)c(=O)[nH]c2=O)s1,AC50,[1],"1.16 µM [falling, partial curve, poor fit]"
O=C(Cn1nnc(-c2ccccc2)n1)NCc1ccc2c(c1)OCO2,AC50,[1],"8.91 µM [falling, partial curve, poor fit]"
Cc1ccc(C(=O)Nc2nnc(-c3ccco3)o2)cc1,AC50,[1],"16.4 µM [falling, partial curve]"
CN1CCN(NC(=S)Nc2ccc(Oc3ccccc3)cc2)CC1,AC50,[1],"35.5 µM [falling, single point]"
COc1ccc(CCN2CC(C(=O)Nc3ccccc3F)CC2=O)cc1OC (stereo not drawn),AC50,[1],"0.164 µM [rising, full curve, poor fit]"
O=C(Nc1nc(-c2ccccn2)cs1)c1ccc(S(=O)(=O)N2CCCCC2)cc1,AC50,[1],"35.5 µM [falling, single point]"
N=c1c2c(n(Cc3ccc(Br)cc3)c3c1CCC3)CCCC2,AC50,[1],"10.3 µM [falling, partial curve, poor fit]"
Cc1ccc(/C=C2\SC(=S)N(CCCC(=O)Nc3nccs3)C2=O)cc1,AC50,[1],"2.31 µM [falling, full curve]"
CCCCC(=O)N/N=C/c1ccc(Sc2cccc3cccnc23)o1,AC50,[1],"29.1 µM [falling, single point]"
same,AC50,[2],"14.6 µM [falling, single point]"
CCC1CCCCN1S(=O)(=O)c1ccc2c(c1)CCN2C(=O)C1CCC1 (stereo not drawn),AC50,[1],"6.31 µM [falling, single point]"
O=C(N/N=C/c1ccccn1)c1cc([N+](=O)[O-])cc([N+](=O)[O-])c1,AC50,[2],"10 µM [falling, partial curve, poor fit]"
Cc1onc(-c2ccccc2Cl)c1C(=O)NC(=S)NCC(=O)c1ccccc1,AC50,[1],"3.55 µM [rising, full curve]"
COc1cccc(/C=N/n2c(C)nc3ccccc3c2=O)c1O,AC50,[1],"8.91 µM [falling, partial curve]"
CNc1c(C(=O)O)ccc2c1C(=O)c1ccccc1C2=O,AC50,[1],"1.3 µM [rising, full curve]"
CCOC(=O)N1CCN(S(=O)(=O)c2ccc(C(=O)N(CCCN(C)C)c3nc4c(F)cc(F)cc4s3)cc2)CC1,AC50,[1],"0.651 µM [rising, single point]"
O=C(c1ccccc1)c1ccccc1C(=O)c1ccccc1,AC50,[1],"10 µM [rising, single point]"
CCn1cc(CN2CCCC(C(=O)Nc3cccc(-c4cc5ccccc5[nH]4)c3)C2)c(C)n1 (stereo not drawn),AC50,[1],"28.2 µM [falling, single point]"
Cn1ncc(Br)c1NC(=O)Nc1ccc(Cl)cc1,AC50,[1],"3.55 µM [rising, single point]"
Cc1cc(C)nc(SCCC(=O)Nc2ccccc2C)n1,AC50,[1],"0.112 µM [falling, full curve, poor fit]"
COc1cc(/C=N/NS(=O)(=O)c2ccccc2)c(OC)c(OC)c1,AC50,[1],"0.631 µM [falling, full curve, poor fit]"
O=C(CSc1nnc(-c2cccnc2)n1Cc1ccccc1)NCc1ccco1,AC50,[1],"6.31 µM [rising, single point]"
COc1ccc(NC(=O)CC2C(=O)Nc3ccccc3N2CC(=O)N2CCCC2)cc1 (stereo not drawn),AC50,[1],"16.4 µM [rising, single point]"
COc1ccc(/C=N/NC(=O)c2ccc(Br)o2)cc1Cn1cc([N+](=O)[O-])cn1,AC50,[1],"29.1 µM [falling, single point]"
same,AC50,[2],"25.9 µM [rising, single point]"
Cc1cc(NC(=O)c2ccc(NC(=O)CC(C)C)cc2)no1,AC50,[1],"32.6 µM [falling, single point]"
same,AC50,[2],"1.16 µM [rising, full curve, poor fit]"
Cc1cc(C)cc(NC(=O)C(=S)NCc2ccccc2)c1,AC50,[1],"1 µM [rising, partial curve, poor fit]"
COc1ccc2c(CC(=O)Nc3nc(C)cs3)coc2c1,AC50,[1],"12.6 µM [falling, partial curve, poor fit]"
Cc1ccc2c(c1)N(CCC(=O)NCCN1CCOCC1)C(=O)CO2,AC50,[1],"6.31 µM [rising, single point]"
Cc1onc(-c2ccccc2)c1C(=O)OCC(=O)Nc1cc(S(=O)(=O)N2CCOCC2)ccc1Cl,AC50,[1],"12.6 µM [falling, partial curve, poor fit]"
CCOC(=O)c1sc(/N=C/c2ccc(O)cc2O)cc1C,AC50,[1],"20.6 µM [falling, partial curve]"
Nc1ccc2c(c1)CC(=O)c1ccccc1S2,AC50,[1],"20.6 µM [falling, partial curve, poor fit]"
CN1CCC(=NNC(=O)CN(c2ccc([N+](=O)[O-])cc2)S(=O)(=O)c2ccccc2)CC1,AC50,[1],"10 µM [falling, partial curve, poor fit]"
Cc1ccc(NC(=S)N2CCCC(c3ccccc3)=N2)cc1,AC50,[1],"2.24 µM [falling, partial curve, poor fit]"
CC1CC(C)CN(Cc2nc(N)nc(Nc3ccc4ccccc4c3)n2)C1 (stereo not drawn),AC50,[1],"1.84 µM [rising, partial curve, poor fit]"
COc1ccc(NC(=O)CN(C)C(=O)c2ccc(N3CCCCC3)c([N+](=O)[O-])c2)cc1,AC50,[1],"32.6 µM [falling, single point]"
Cc1ccc(C(=O)Nc2ccc3nccnc3c2)cc1,AC50,[1],"11.2 µM [falling, partial curve]"
CC1(C)CC2CC(C)(CN2c2ncnc3ccc(Br)cc23)C1 (stereo not drawn),AC50,[1],"20.6 µM [falling, single point]"
CC(C)c1ccc(-c2cc(C(=O)NN3CCN(C)CC3)c3ccccc3n2)cc1,AC50,[1],"25.9 µM [falling, single point]"
NC(=O)C1CCN(C(=O)CSc2nc3ccccc3[nH]2)CC1,AC50,[1],"29.1 µM [falling, single point]"
N#Cc1c(N)n(-c2ccc(C(=O)O)cc2)c2nc3ccccc3nc12,AC50,[1],"8.91 µM [falling, partial curve]"

# Some of the entries so far, bar-delimited:
structure (smiles) | measurement | setting | value
Cc1ccc(C(=O)Nc2nnc(-c3ccco3)o2)cc1 | AC50 | [1] | 16.4 µM [falling, partial curve]
CN1CCN(NC(=S)Nc2ccc(Oc3ccccc3)cc2)CC1 | AC50 | [1] | 35.5 µM [falling, single point]
